{"source": "the supplement of paper PMC3334620", "note": "Over roughly 33,000 sequences, “E-score (-0.5 to 0.5)” has its median near -0.0059; the highest 2% begin near 0.26. This is one part of the list."}
{"molecular_target": "T1, Cin5 (UniProt P40917)", "T1 sequence": "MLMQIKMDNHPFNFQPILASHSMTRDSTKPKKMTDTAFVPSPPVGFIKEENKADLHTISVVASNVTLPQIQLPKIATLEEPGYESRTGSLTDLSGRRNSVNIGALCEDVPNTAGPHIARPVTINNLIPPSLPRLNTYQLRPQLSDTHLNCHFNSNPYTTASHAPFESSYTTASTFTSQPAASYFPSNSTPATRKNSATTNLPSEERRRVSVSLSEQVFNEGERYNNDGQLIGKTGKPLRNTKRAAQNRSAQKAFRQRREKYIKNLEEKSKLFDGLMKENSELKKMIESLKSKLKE", "assay": "PBM E-score (8-mer binding enrichment) (E-score (-0.5 to 0.5)); higher = stronger / more preferred TF binding", "conditions": "protein concentration: 100 nM; construct: GST-full length", "outline": "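For each ungapped eight-base word taken together with its reverse complement, the Universal PBM Analysis Suite assigned an E-score. Binding data came from GST-tagged yeast transcription factors, applied at about 100-200 nM, on universal all-10-mer Agilent arrays made double-stranded by primer extension. Fluorescent anti-GST marked bound protein, and scans were normalised with masliner.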"}
{"sequence": "TAAGTAGA", "PBM E-score": 0.05}
{"sequence": "CACCTAAG", "PBM E-score": 0.139}
{"sequence": "GATAGACC", "PBM E-score": -0.0396}
{"sequence": "ATAAAAAC", "PBM E-score": 0.166}
{"sequence": "CACCAGGC", "PBM E-score": -0.173}
{"sequence": "CCTCCTAA", "PBM E-score": -0.207}
{"sequence": "CAGTTTGC", "PBM E-score": 0.0891}
{"sequence": "CATAAAGG", "PBM E-score": -0.129}
{"sequence": "CAGTCTCC", "PBM E-score": -0.0362}
{"sequence": "ATTGAGCC", "PBM E-score": 0.111}
{"sequence": "AAAAACCC", "PBM E-score": 0.00593}
{"sequence": "CTAGTGTA", "PBM E-score": 0.111}
{"sequence": "GCAGCTGC", "PBM E-score": -0.0527}
{"sequence": "TCGGCGCA", "PBM E-score": 0.0671}
{"sequence": "GATGCTCC", "PBM E-score": -0.2}
{"sequence": "CCTACGAG", "PBM E-score": -0.168}
{"sequence": "CCTAGAGA", "PBM E-score": -0.119}
{"sequence": "AGATGCTG", "PBM E-score": -0.0757}
{"sequence": "GCGTGCCC", "PBM E-score": -0.158}
{"sequence": "GAAAGGTA", "PBM E-score": 0.121}
{"sequence": "CTATCAAA", "PBM E-score": 0.199}
{"sequence": "CCCCGAGC", "PBM E-score": -0.0314}
{"sequence": "CTCCGGGC", "PBM E-score": -0.164}
{"sequence": "TCAAGCCA", "PBM E-score": -0.0873}
{"sequence": "CACCTGGA", "PBM E-score": -0.0421}
{"sequence": "TCTTGTAA", "PBM E-score": 0.078}
{"sequence": "CTCGGTTA", "PBM E-score": -0.0853}
{"sequence": "ACGGAAGG", "PBM E-score": -0.0907}
{"sequence": "AACATAAC", "PBM E-score": 0.223}
{"sequence": "CCGATTAG", "PBM E-score": 0.216}
{"sequence": "ATCCTGGG", "PBM E-score": -0.125}
{"sequence": "CCATTTAG", "PBM E-score": -0.0487}
{"sequence": "GGGCGCCA", "PBM E-score": 0.0597}
{"sequence": "CCACCCTA", "PBM E-score": 0.0333}
{"sequence": "CCATTTCG", "PBM E-score": -0.046}
{"sequence": "GACTCGGA", "PBM E-score": -0.142}
{"sequence": "CTTACTTC", "PBM E-score": 0.218}
{"sequence": "CGAAAGTA", "PBM E-score": 0.0557}
{"sequence": "GGTCTGAC", "PBM E-score": -0.169}
{"sequence": "CTGTCCAA", "PBM E-score": -0.0324}
{"sequence": "CCTAGTGA", "PBM E-score": -0.0994}
{"sequence": "ATTCAGAC", "PBM E-score": 0.0804}
{"sequence": "CGTTTTTA", "PBM E-score": 0.0643}
{"sequence": "GGGCATAC", "PBM E-score": -0.132}
{"sequence": "CTAAAGGC", "PBM E-score": -0.125}
{"sequence": "CTCTGTCA", "PBM E-score": -0.0678}
{"sequence": "ACTCGACA", "PBM E-score": 0.0877}
{"sequence": "CTTTATAA", "PBM E-score": -0.0352}
{"sequence": "ACTGGTAT", "PBM E-score": -0.0253}
{"sequence": "ACCGGGTC", "PBM E-score": -0.121}
{"sequence": "ACATTTAC", "PBM E-score": 0.0149}
{"sequence": "CGGCGTAG", "PBM E-score": -0.0989}
{"sequence": "ACAATTGC", "PBM E-score": 0.0338}
{"sequence": "CTACGATC", "PBM E-score": -0.0823}
{"sequence": "ACGCTCAT", "PBM E-score": 0.0547}
{"sequence": "CGCTACGC", "PBM E-score": -0.323}
{"sequence": "AAAGGGAC", "PBM E-score": -0.22}
{"sequence": "ATTTCGGG", "PBM E-score": 0.0696}
{"sequence": "GGTCTGCA", "PBM E-score": -0.151}
{"sequence": "CGTTCCAA", "PBM E-score": -0.0441}
{"sequence": "TAAGAAAA", "PBM E-score": 0.0216}
{"sequence": "GGTCCCCA", "PBM E-score": -0.234}
{"sequence": "GTTGAACA", "PBM E-score": -0.0915}
{"sequence": "AGCCCTCA", "PBM E-score": -0.18}
{"sequence": "GCCCGTAC", "PBM E-score": -0.239}
{"sequence": "CCACAAAC", "PBM E-score": 0.0505}
{"sequence": "AAACTAGG", "PBM E-score": 0.0204}
{"sequence": "CTCAAAAA", "PBM E-score": 0.0313}
{"sequence": "CAGATGCG", "PBM E-score": -0.177}
{"sequence": "TTCGGCAA", "PBM E-score": -0.00562}
{"sequence": "GTTTCATA", "PBM E-score": 0.116}
{"sequence": "AACTTCGG", "PBM E-score": 0.126}
{"sequence": "CGCAACGA", "PBM E-score": 0.0182}
{"sequence": "ATTTCAGA", "PBM E-score": -0.0549}
{"sequence": "CAGATTAA", "PBM E-score": 0.169}
{"sequence": "GTCTGAAA", "PBM E-score": -0.0562}
{"sequence": "AACCGTAA", "PBM E-score": 0.106}
{"sequence": "ACCCCAGA", "PBM E-score": 0.101}
{"sequence": "AGCTGCCG", "PBM E-score": -0.0554}
{"sequence": "ACCCGCCA", "PBM E-score": 0.0492}
{"sequence": "GTCTACAA", "PBM E-score": -0.236}
{"sequence": "AGACCCAG", "PBM E-score": -0.097}
{"sequence": "CTCGGACC", "PBM E-score": -0.0862}
{"sequence": "GAATAATC", "PBM E-score": 0.221}
{"sequence": "ACAAGCAA", "PBM E-score": 0.122}
{"sequence": "AAGGACGG", "PBM E-score": -0.153}
{"sequence": "CCGTTCCG", "PBM E-score": 0.0649}
{"sequence": "CGATGTAC", "PBM E-score": 0.109}
{"sequence": "CTAAGCGC", "PBM E-score": 0.098}
{"sequence": "CAGCCTGC", "PBM E-score": -0.174}
{"sequence": "CATGATAG", "PBM E-score": 0.0148}
{"sequence": "CCTTGCTC", "PBM E-score": -0.0589}
{"sequence": "CAAAGCGA", "PBM E-score": 0.028}
{"sequence": "CGAACTTC", "PBM E-score": -0.0301}
{"sequence": "ATGCACAC", "PBM E-score": 0.0898}
{"sequence": "AATTCGTG", "PBM E-score": -0.0217}
{"sequence": "AAGGGTGT", "PBM E-score": -0.0789}
{"sequence": "CCCACGGA", "PBM E-score": -0.0572}
{"sequence": "AGATTAAT", "PBM E-score": 0.218}
{"sequence": "ATGGTACG", "PBM E-score": 0.0949}
{"sequence": "GGTCTCAC", "PBM E-score": -0.167}
{"sequence": "AATACGGA", "PBM E-score": 0.188}
{"sequence": "GGCGCCTA", "PBM E-score": -0.0895}
{"sequence": "CTTTGTTC", "PBM E-score": 0.0999}
{"sequence": "AACGAGAG", "PBM E-score": 0.0786}
{"sequence": "TAGAGCTA", "PBM E-score": -0.0785}
{"sequence": "CGCCGGAA", "PBM E-score": 0.0331}
{"sequence": "AACCTTGA", "PBM E-score": 0.077}
{"sequence": "ACCGGCCT", "PBM E-score": -0.101}
{"sequence": "CTGTCCCC", "PBM E-score": -0.121}
{"sequence": "GACACCAA", "PBM E-score": 0.0301}
{"sequence": "CGCCCTAA", "PBM E-score": -0.18}
{"sequence": "GGCGTCCC", "PBM E-score": -0.138}
{"sequence": "ATAATCTA", "PBM E-score": 0.242}
{"sequence": "ATAAGACC", "PBM E-score": 0.0621}
{"sequence": "CAGCCAGC", "PBM E-score": -0.176}
{"sequence": "AGTGAACC", "PBM E-score": 0.0709}
{"sequence": "CACGAAAG", "PBM E-score": 0.047}
{"sequence": "ACCGCGCC", "PBM E-score": -0.0171}
{"sequence": "GTCTTAAA", "PBM E-score": -0.185}
{"sequence": "CATACGTC", "PBM E-score": 0.0152}
{"sequence": "GACTGTCA", "PBM E-score": -0.16}
{"sequence": "CAAGGGAA", "PBM E-score": -0.129}
{"sequence": "CTTTAATC", "PBM E-score": 0.043}
{"sequence": "CAGAAGTC", "PBM E-score": -0.0554}
{"sequence": "TATAGCAA", "PBM E-score": 0.134}
{"sequence": "AAATCTAT", "PBM E-score": 0.107}
{"sequence": "GCCCATAC", "PBM E-score": 0.0443}
{"sequence": "TCCCCCAA", "PBM E-score": -0.332}
{"sequence": "TGGCGGAA", "PBM E-score": -0.0447}
{"sequence": "GGATTTAA", "PBM E-score": 0.0513}
{"sequence": "ACCGGAAA", "PBM E-score": -0.0602}
{"sequence": "CTGTGATC", "PBM E-score": -0.0103}
{"sequence": "CAGAGCAA", "PBM E-score": -0.0278}
{"sequence": "CCGGAACC", "PBM E-score": 0.0665}
{"sequence": "CATGACTC", "PBM E-score": -0.0741}
{"sequence": "CTGGTGCA", "PBM E-score": -0.173}
{"sequence": "GATTATAC", "PBM E-score": 0.182}
{"sequence": "AAGCCAGG", "PBM E-score": -0.126}
{"sequence": "ATCCCCGC", "PBM E-score": 0.0335}
{"sequence": "TGCTGCAA", "PBM E-score": 0.0664}
{"sequence": "CCGACCAG", "PBM E-score": -0.0784}
{"sequence": "CTACTCGC", "PBM E-score": -0.00413}
{"sequence": "ATAGGTGA", "PBM E-score": 0.00129}
{"sequence": "CAGAGTTA", "PBM E-score": 0.184}
{"sequence": "CGACCGTA", "PBM E-score": -0.0637}
{"sequence": "CCACCCGA", "PBM E-score": 0.0559}
{"sequence": "ACGATTGA", "PBM E-score": 0.11}
{"sequence": "GGGTTCCA", "PBM E-score": -0.221}
{"sequence": "ACTGCAGG", "PBM E-score": -0.168}
{"sequence": "GAGCCCTC", "PBM E-score": -0.268}
{"sequence": "CTTCAAGC", "PBM E-score": -0.231}
{"sequence": "GTGCTATA", "PBM E-score": 0.101}
{"sequence": "AGGCATAT", "PBM E-score": -0.0567}
{"sequence": "ATAGGAAC", "PBM E-score": -0.0175}
{"sequence": "CCGGCCCG", "PBM E-score": -0.185}
{"sequence": "GGTATACA", "PBM E-score": 0.147}
{"sequence": "AAACAGAG", "PBM E-score": 0.021}
{"sequence": "ATACCTTG", "PBM E-score": 0.0672}
{"sequence": "TACGTTAA", "PBM E-score": 0.086}
{"sequence": "AGAATCTC", "PBM E-score": -0.0705}
{"sequence": "CGTACCCA", "PBM E-score": -0.0177}
{"sequence": "GCTCATTA", "PBM E-score": 0.075}
{"sequence": "GTTGGAAA", "PBM E-score": -0.0276}
{"sequence": "ATTACGGC", "PBM E-score": 0.181}
{"sequence": "CATTTGCG", "PBM E-score": 0.0375}
{"sequence": "AGTGCGAA", "PBM E-score": -0.0773}
{"sequence": "CTAGCCAA", "PBM E-score": 0.139}
{"sequence": "ATCCCTCA", "PBM E-score": -0.121}
{"sequence": "AATACTCT", "PBM E-score": 0.115}
{"sequence": "AGAAGACT", "PBM E-score": -0.152}
{"sequence": "ACGTCCAG", "PBM E-score": -0.105}
